Measured values from publication PMC9468158, “Transmembrane helices mediate the formation of a stable ternary complex of b5R, cyt b5, and SCD1” (Communications Biology, 2022).
Results are given in words; binding and its absence hold for the method and conditions named. Where a sequence is shown, tags or fusion partners need not be part of it.

Target: T1, SCD1, released from the linker-cleaved SCD1-cyt b5 fusions (mouse) (UniProt P13516)
T1 sequence: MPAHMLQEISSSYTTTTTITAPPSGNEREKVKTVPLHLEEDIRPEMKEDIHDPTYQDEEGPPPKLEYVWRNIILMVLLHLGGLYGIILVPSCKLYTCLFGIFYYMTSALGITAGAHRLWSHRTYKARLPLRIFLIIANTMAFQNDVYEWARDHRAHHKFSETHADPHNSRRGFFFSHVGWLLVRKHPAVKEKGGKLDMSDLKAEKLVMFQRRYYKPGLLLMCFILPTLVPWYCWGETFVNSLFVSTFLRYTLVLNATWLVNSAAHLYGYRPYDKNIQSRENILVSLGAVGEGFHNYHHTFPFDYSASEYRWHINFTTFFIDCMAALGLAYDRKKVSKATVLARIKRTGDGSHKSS
Assay: SEC; binary fusion protein purified, linker cleaved by TEV protease, Superdex 200 10/300 GL in 20 mM HEPES pH 7.5, 150 mM NaCl, 1 mM DDM; elution compared with the tethered fusion; both purified

binding: no binding
Substance: soluble domain of cyt b5, released from the linker-cleaved fusion with SCD1 (mouse) (domain or fragment)
